# The whole screen tested about 400,000 compounds, of which about 13,000 (3.2%) were called active. The shares of active, inactive and inconclusive entries below differ from those in the screen. Calls follow the shape of the dose curve; as a rule, active = well fitted cell-killing curve with a large enough effect; inconclusive = small, poorly fitted or top-dose-only effect, or effect the other way; inactive = flat fitted curve, though single readings scatter. Potencies beside an inconclusive call are fits to weak or partial responses and may not hold up.
# Assay: qHTS assay for MDR1-selective chemotherapeutics: Primary screen using the drug-selected MDR subline cells KB-V1; also: nearly all actives have a fitted effect of over 60% in size
# Settings: KB-V1 MDR cells viability, CellTiter-Glo, 72 h; activity change, negative = cytotoxicity: at 46.1 µM (top of the series)
# How it was run: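 Compound-treated KB-V1 multidrug-resistant cells, 72 h, 37 degrees C; viability by CellTiter-Glo. Fitted qHTS curves give the values.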
# % is scaled to controls: 0 for no effect and ±100 for the full control effect; potency is read from the fitted curve at half-maximal effect.
SMILES,Potency,"activity change, negative = cytotoxicity"
COc1ccc(C(=O)N2N=C3CC(C)(C)OCC3C2c2ccccc2)cc1 (stereo not given),"inconclusive: 23.1 µM [cytotoxic, partial curve, poor fit]",–
CC1CC(C)CN(C(=O)c2ccc(C(=O)c3ccccc3)cc2)C1 (stereo not given),"inconclusive: 8.2 µM [cytotoxic, partial curve]",–
N#Cc1c(N)nc(SCc2ccncc2)c(C#N)c1-c1cccs1,–,inactive: 10.5%
O=C(Cn1c(=O)n(Cc2nc(-c3ccccc3)no2)c(=O)c2ccccc21)Nc1cccc(C(F)(F)F)c1,"inconclusive: 6.51 µM [cytotoxic, partial curve]",–
CCc1cc2cc(C)ccc2nc1SCC(=O)Nc1cc(C)on1,active: 9.2 µM,–
COc1ccc(NC(=O)CSc2nc3ccccc3c(=O)n2CCC(=O)N2CCCCC2)cc1,"inconclusive: 10.3 µM [cytotoxic, partial curve]",–
O=S(=O)(Nc1ccc2c3c(cccc13)CC2)c1ccc(F)cc1,"inconclusive: 29.1 µM [cytotoxic, single point]",–
CCC1Oc2ccc(C)cc2N(CC(=O)N2CCN(c3ccc(F)cc3)CC2)C1=O (stereo not given),–,inactive: -13.5%
C[C@@H]1CN([C@@H](C)CO)C(=O)CCCn2nncc2CO[C@@H]1CN(C)C(=O)Nc1ccccc1C(F)(F)F,–,inactive: 19.2%
CC1CCCCC1N=CC1=C(O)CC(C)(C)CC1=O (stereo not given),"inconclusive: 32.6 µM [cytotoxic, single point]",–
COC(=O)c1c(NC(=O)c2ccco2)sc(C)c1C,–,inactive: 0.0599%
CCCC(c1nnnn1C1CCCC1)N1CCN(C(=O)c2ccco2)CC1 (stereo not given),"inconclusive: 20.6 µM [cytotoxic, partial curve, poor fit]",–
CC(C)/C=C1\CC/C(=C\c2ccc(N(C)C)cc2)C1=O,"inconclusive: 23.1 µM [cytotoxic, single point]",–
COc1cc(C(=O)OCc2nc3ccsc3c(=O)[nH]2)c([N+](=O)[O-])cc1OC,–,inactive: 1.95%
CC[C@]12c3[nH]c4ccc(Cl)cc4c3CCN1C(=O)[C@@H](CC(=O)NCCC1=CCCCC1)C[C@@H]2C(=O)N1CCN(C(=O)c2ccco2)CC1,–,inactive: 0.0002%
CCCCN1C(=O)NC2NC(=O)NC21 (stereo not given),"inconclusive: 0.291 µM [rising, full curve]",–
CSc1cccc(NC(=O)NNC(=O)C2CCN(S(=O)(=O)N(C)C)CC2)c1,"inconclusive: 20.6 µM [rising, single point]",–
Cc1cccc(N(Cc2ccccc2)C(=O)c2cc(S(=O)(=O)N3CCOCC3)ccc2F)c1,–,inactive: -12.4%
CCCC(=O)c1c(NC(C)C)cc(C)oc1=O,"inconclusive: 16.4 µM [cytotoxic, single point]",–
CCOc1ccc(S(=O)(=O)N2CCC(C(=O)N3CCCC3)CC2)cc1C,"inconclusive: 7.31 µM [cytotoxic, partial curve, poor fit]",–
NC(=O)N/N=C/c1ccc([N+](=O)[O-])o1,"inconclusive: 29.1 µM [cytotoxic, single point]",–
CCCCCCn1c(C)nc2c(c1=O)c1nc3ccccc3nc1n2/N=C/c1ccco1,"inconclusive: 18.4 µM [cytotoxic, single point]",–
Cc1ccc(S(=O)(=O)NN2C(=O)/C(=C/c3ccccn3)SC2=S)cc1,"inconclusive: 29.1 µM [rising, single point]",–
Cc1ccc(C)c2[nH]c(=O)c(C(c3nnnn3C(C)(C)C)N3CC=C(c4ccc(F)cc4)CC3)cc12 (stereo not given),"inconclusive: 1.46 µM [cytotoxic, full curve]",–

SMILES,Potency,"activity change, negative = cytotoxicity"
Cn1cnc([N+](=O)[O-])c1NC(C)(C)C,"inconclusive: 14.6 µM [rising, partial curve]",–
c1ccc2c(N3CCCCCC3)nc(-c3ccncc3)nc2c1,active: 18.4 µM,–
COc1cc(NC(=O)c2cc3c(=O)oc4ccc(C)cc4c3s2)cc(OC)c1OC,–,inactive: -9.46%
CN(C)S(=O)(=O)c1cc(C(=O)NCc2ccccc2)c(Cl)cc1Cl,"inconclusive: 25.9 µM [cytotoxic, single point]",–
O=C(Nc1ccc(Br)cc1Cl)c1ccc(OCC2CCCO2)cc1 (stereo not given),"inconclusive: 0.0103 µM [cytotoxic, full curve, poor fit]",–
COc1cccc(CN(C)C(=O)c2cc(S(=O)(=O)N3CCN(c4ccccc4)CC3)ccc2Cl)c1,"inconclusive: 5.8 µM [cytotoxic, partial curve]",–
CC(C)c1ccccc1OCC(=O)NC1CCCc2ccccc21 (stereo not given),"inconclusive: 14.6 µM [cytotoxic, partial curve, poor fit]",–
O=C(Nc1cccnc1)c1cc(S(=O)(=O)N2CCCCC2)c(Cl)cc1Cl,"inconclusive: 14.6 µM [cytotoxic, partial curve]",–
COc1ccc(NC(=O)CSc2nc3c(c(=O)n(C)c(=O)n3C)n2C)c(OC)c1,"inconclusive: 5.17 µM [cytotoxic, partial curve]",–
CCOC(=O)c1ccc(NC(=O)N2CC(C)OC(C)C2)cc1 (stereo not given),"inconclusive: 23.1 µM [cytotoxic, partial curve]",–
O=C(CSc1nc2nn(-c3ccccc3)c(=O)c-2c2n1CCCCC2)NCCc1ccccc1,"inconclusive: 14.6 µM [cytotoxic, single point]",–
O=c1c2sc(-c3ccccc3)cc2nc2n1CCCCC2,active: 11.6 µM,–
O=C(COc1coc(CN2CCc3ccccc3C2)cc1=O)Nc1ccccc1F,–,inactive: -16.6%
CC(=O)Cc1nsc(NC(=O)c2ccc(-c3ccccc3Cl)o2)n1,"inconclusive: 29.1 µM [cytotoxic, single point]",–
COc1ccc(OC2C(=O)N(Cc3ccc4c(c3)OCO4)C2c2cccs2)cc1 (stereo not given),"inconclusive: 20.6 µM [cytotoxic, single point]",–
Brc1ccc(-c2cc3c(N4CCN(c5ccccc5)CC4)nccn3n2)cc1,–,inactive: -28%
O=C(CCn1cccc1)N1CCc2ccccc21,–,inactive: 26.8%
COCc1cc(=O)[nH]c(N2CCN(C(=O)c3ccco3)CC2)n1,"inconclusive: 10.3 µM [rising, partial curve, poor fit]",–
O=C(NC1CCC(O)CC1)c1ccc(Br)o1 (stereo not given),–,inactive: 0%
O=C(Nc1cccc([N+](=O)[O-])c1)Nc1ccc2c(c1)OCCO2,"inconclusive: 23.1 µM [cytotoxic, single point]",–
CC(C)CCNC(=O)c1ccc2c(Cl)c3c(nc2c1)CCC3,"inconclusive: 9.2 µM [cytotoxic, partial curve, poor fit]",–
CCCCCSc1nnc(C)c(=O)[nH]1,–,inactive: 17%
O=C(Nc1cccc(-c2cn3ccccc3n2)c1)c1cnccn1,–,inactive: -11.2%
O=C(NCc1cc([N+](=O)[O-])ccc1O)c1cccnc1Sc1ccccc1,"inconclusive: 29.1 µM [rising, single point]",–

# Single records (already shown):
# O=C(NC1CCC(O)CC1)c1ccc(Br)o1 (stereo not given) as listed: activity change, negative = cytotoxicity: inactive: 0%
# CCCCCSc1nnc(C)c(=O)[nH]1 as listed: activity change, negative = cytotoxicity: inactive: 17%
# CCOC(=O)c1ccc(NC(=O)N2CC(C)OC(C)C2)cc1 (stereo not given) as listed: Potency: inconclusive: 23.1 µM [cytotoxic, partial curve]
# O=C(NCc1cc([N+](=O)[O-])ccc1O)c1cccnc1Sc1ccccc1 as listed: Potency: inconclusive: 29.1 µM [rising, single point]

# Next part.

SMILES,Potency,"activity change, negative = cytotoxicity"
CC(C)OC(=O)Cn1nc(C(F)(F)F)c2c1CCCC2,"inconclusive: 29.1 µM [rising, single point]",–
C=CCn1c(=NC(=O)c2cc(Cl)sc2Cl)sc2cc(S(N)(=O)=O)ccc21,"inconclusive: 23.1 µM [cytotoxic, single point]",–
CCN1C[C@@H]2[C@@H]3C(=O)N(C)C(=O)[C@@H]3[C@](CC)(C1=O)N2C(=O)c1ccc(C(C)(C)C)cc1,–,inactive: 3.11%
C#CCN1C=CC(=O)[C@@H](OC(=O)Nc2ccccc2Br)[C@H]1c1ccccc1Br,–,inactive: -15%
CCOC(=O)c1ccc(N2C(=O)c3n[nH]c(-c4cccs4)c3C2c2ccc(C)cc2)cc1 (stereo not given),–,inactive: 0%
COc1ccc(Nc2cc(C)nc(NCc3ccccc3)n2)cc1,"inconclusive: 6.51 µM [cytotoxic, partial curve]",–
Cc1cc2ccccc2n1-c1ccc(C(=O)N2CCCCC2)s1,–,inactive: -15.5%
COc1cccc(CNC(=O)CCNS(=O)(=O)c2cccc3nsnc23)c1,inactive,–
CC1CN(S(=O)(=O)c2ccc(Cl)c(S(=O)(=O)N3CC(C)OC(C)C3)c2)CC(C)O1 (stereo not given),"inconclusive: 1.84 µM [cytotoxic, full curve]",–
CCOC(=O)C1=C(C)N(c2ccc(OC)cc2)C(=O)/C1=C\c1cccs1,–,inactive: -3.47%
CC12CCC(C(=O)Nc3cccnc3)(CC1=O)C2(C)C (stereo not given),"inconclusive: 10.3 µM [rising, partial curve, poor fit]",–
CC(=O)Nc1ccc(SCC(=O)N(CCC#N)c2ccc(C)cc2)cc1,–,inactive: -10.2%
Cc1ccc(-n2ncc3c(=O)n(CC(=O)N4CCN(c5ccccc5)CC4)cnc32)cc1,"inconclusive: 2.91 µM [cytotoxic, full curve]",–
Cn1ccc2c(N3CCCCCC3)cc3c(c21)C1CCC3C1 (stereo not given),–,inactive: 2.82%
COCCNC(=O)c1cc2n(n1)CCCN(Cc1ccc(C)cc1)C2=O,–,inactive: -0.371%
CCN(CC)CC(=O)Nc1ccc2c(c1)Nc1ccccc1CC2,"inconclusive: 22.4 µM [cytotoxic, single point]",–
CC(=O)Cn1nnc2sc(-c3ccccc3)cc2c1=O,"inconclusive: 0.0052 µM [cytotoxic, full curve, poor fit]",–
Cc1ccc(CNC(=S)Nc2ccc3c(c2)c(=O)n(C)n3Cc2cccc(C(F)(F)F)c2)cc1,–,inactive: -3.88%
C=CCNC(=S)N1CCN(c2cccc(C(F)(F)F)c2)CC1,"inconclusive: 16.4 µM [cytotoxic, single point]",–
Cc1ccc2nc(/C(C#N)=C/c3cn[nH]c3-c3ccc(F)cc3)[nH]c2c1,"inconclusive: 18.4 µM [cytotoxic, partial curve, poor fit]",–
O=C(CSC1=Nc2ccccc2C2CC=NN12)NCc1ccco1 (stereo not given),"inconclusive: 23.1 µM [cytotoxic, single point]",–
O=C1CC(c2nc3ccccc3n2Cc2c(F)cccc2Cl)CN1c1cccc(C(F)(F)F)c1 (stereo not given),"inconclusive: 23.1 µM [cytotoxic, partial curve]",–
